Reference: article doi:10.1101/145664
No constants are given. Whether binding was seen depends on the method and setting. In cells and extracts the contact can be indirect. Some binding calls cover weakened binding; strength is not graded here. Blank lines part the entries; values can stand above or below the binder they belong to.

Target: T1, Sla1 (S. cerevisiae), P32790
T1 chain: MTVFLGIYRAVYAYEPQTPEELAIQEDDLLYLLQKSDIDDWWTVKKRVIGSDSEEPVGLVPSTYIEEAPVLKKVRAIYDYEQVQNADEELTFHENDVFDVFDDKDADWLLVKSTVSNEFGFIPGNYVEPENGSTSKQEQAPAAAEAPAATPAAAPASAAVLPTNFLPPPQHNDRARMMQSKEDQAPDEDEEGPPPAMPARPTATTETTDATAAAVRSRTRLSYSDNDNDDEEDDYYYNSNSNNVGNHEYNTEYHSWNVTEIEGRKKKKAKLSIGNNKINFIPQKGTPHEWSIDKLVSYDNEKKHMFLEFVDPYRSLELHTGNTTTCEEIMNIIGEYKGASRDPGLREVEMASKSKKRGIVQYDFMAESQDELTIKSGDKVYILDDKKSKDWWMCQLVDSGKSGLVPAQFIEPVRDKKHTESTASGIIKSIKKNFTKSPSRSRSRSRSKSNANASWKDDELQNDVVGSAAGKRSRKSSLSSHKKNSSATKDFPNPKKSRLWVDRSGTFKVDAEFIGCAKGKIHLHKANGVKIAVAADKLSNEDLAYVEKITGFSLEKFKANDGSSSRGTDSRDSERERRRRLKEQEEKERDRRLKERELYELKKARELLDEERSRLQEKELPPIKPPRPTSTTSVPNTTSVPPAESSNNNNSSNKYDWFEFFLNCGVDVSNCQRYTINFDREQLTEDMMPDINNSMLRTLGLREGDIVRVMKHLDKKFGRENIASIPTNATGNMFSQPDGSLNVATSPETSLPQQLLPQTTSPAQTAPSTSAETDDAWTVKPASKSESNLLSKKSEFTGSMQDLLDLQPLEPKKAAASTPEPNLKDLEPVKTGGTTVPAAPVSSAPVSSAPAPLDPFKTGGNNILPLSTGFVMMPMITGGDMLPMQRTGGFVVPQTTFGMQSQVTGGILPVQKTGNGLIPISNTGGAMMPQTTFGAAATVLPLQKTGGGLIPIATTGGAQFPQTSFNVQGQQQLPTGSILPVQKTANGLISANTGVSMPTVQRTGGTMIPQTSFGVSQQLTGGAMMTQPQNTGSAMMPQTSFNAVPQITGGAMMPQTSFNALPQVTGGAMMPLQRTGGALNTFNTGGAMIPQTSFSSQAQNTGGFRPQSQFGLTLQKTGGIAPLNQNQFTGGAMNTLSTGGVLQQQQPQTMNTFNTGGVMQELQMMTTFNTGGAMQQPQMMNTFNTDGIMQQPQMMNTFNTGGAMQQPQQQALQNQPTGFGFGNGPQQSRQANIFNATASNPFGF
Assay: split reporter
Conditions: remark: other sources report otherwise

binding: binds
B1: Sla2, P33338 1-968 (protein)
chain: MSRIDSDLQKALKKACSVEETAPKRKHVRACIVYTWDHQSSKAVFTTLKTLPLANDEVQLFKMLIVLHKIIQEGHPSALAEAIRDRDWIRSLGRVHSGGSSYSKLIREYVRYLVLKLDFHAHHRGFNNGTFEYEEYVSLVSVSDPDEGYETILDLMSLQDSLDEFSQIIFASIQSERRNTECKISALIPLIAESYGIYKFITSMLRAMHRQLNDAEGDAALQPLKERYELQHARLFEFYADCSSVKYLTTLVTIPKLPVDAPDVFLINDVDESKEIKFKKREPSVTPARTPARTPTPTPPVVAEPAISPRPVSQRTTSTPTGYLQTMPTGATTGMMIPTATGAANAIFPQATAQMQPDFWANQQAQFANEQNRLEQERVQQLQQQQAQQELFQQQLQKAQQDMMNMQLQQQNQHQNDLIALTNQYEKDQALLQQYDQRVQQLESEITTMDSTASKQLANKDEQLTALQDQLDVWERKYESLAKLYSQLRQEHLNLLPRFKKLQLKVNSAQESIQKKEQLEHKLKQKDLQMAELVKDRDRARLELERSINNAEADSAAATAAAETMTQDKMNPILDAILESGINTIQESVYNLDSPLSWSGPLTPPTFLLSLLESTSENATEFATSFNNLIVDGLAHGDQTEVIHCVSDFSTSMATLVTNSKAYAVTTLPQEQSDQILTLVKRCAREAQYFFEDLMSENLNQVGDEEKTDIVINANVDMQEKLQELSLAIEPLLNIQSVKSNKETNPHSELVATADKIVKSSEHLRVDVPKPLLSLALMIIDAVVALVKAAIQCQNEIATTTSIPLNQFYLKNSRWTEGLISAAKAVAGATNVLITTASKLITSEDNENTSPEQFIVASKEVAASTIQLVAASRVKTSIHSKAQDKLEHCSKDVTDACRSLGNHVMGMIEDDHSTSQQQQPLDFTSEHTLKTAEMEQQVEILKLEQSLSNARKRLGEIRRHAYYNQDDD

binding: binds
B2: Sla1, P32790 1-1244 (protein)
chain: T1 chain
